# Laboratory results reported in US20060183889A1, “Alkyl phosphine detergent products and extraction processes” (priority 2005, published 2006).
# Assay: Compatibility with protein detection reagents
# Conditions: detergent present
structure (smiles),measurement,value
"CCCCCCCCCCP(C)(C)=O [APO-10, Dimethyldecylphosphine oxide]",interference with detection of Chloramphenicol Acetyl Transferase (CAT) by Lumio protein detection agent,without interference
same,interference with detection of beta-galactosidase by InVision protein detection agent,without interference
